For at least one compound, name, drawing or mass did not settle the structure. Some entries share one result that the patent states for a list of compounds.
Tests used:
[1] = target: T1, methylphosphonate-aged eeAChE (Electrophorus electricus, UniProt O42275); type: biochemical, electric eel; settings: pH 8
T1 construct: purchased Sigma Aldrich

By UniProt entry, the sequences of proteins in these tests, tags left out. Residues count along the entry.
UniProt O42275, 24-633 limits assumed: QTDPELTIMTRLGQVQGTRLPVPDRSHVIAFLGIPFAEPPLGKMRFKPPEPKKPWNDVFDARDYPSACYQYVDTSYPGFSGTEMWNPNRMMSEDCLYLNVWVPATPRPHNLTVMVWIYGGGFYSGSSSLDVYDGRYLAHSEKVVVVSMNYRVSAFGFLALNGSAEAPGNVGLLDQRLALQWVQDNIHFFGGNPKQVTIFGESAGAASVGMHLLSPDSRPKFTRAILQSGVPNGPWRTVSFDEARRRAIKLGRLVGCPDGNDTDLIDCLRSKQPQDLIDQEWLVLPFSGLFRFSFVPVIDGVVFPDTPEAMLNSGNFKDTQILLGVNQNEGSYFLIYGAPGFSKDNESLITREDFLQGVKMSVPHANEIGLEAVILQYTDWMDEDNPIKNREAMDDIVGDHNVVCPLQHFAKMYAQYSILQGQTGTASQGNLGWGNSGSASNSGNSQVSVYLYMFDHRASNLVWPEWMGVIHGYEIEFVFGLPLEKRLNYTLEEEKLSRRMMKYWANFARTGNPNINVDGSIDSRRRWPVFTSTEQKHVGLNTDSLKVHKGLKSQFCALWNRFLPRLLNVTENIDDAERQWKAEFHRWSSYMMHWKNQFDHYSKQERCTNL

[2] = target: T2, isopropyl phosphate-aged eeAChE (Electrophorus electricus, UniProt O42275); type: biochemical, electric eel; settings: pH 8
T2 construct: purchased Sigma Aldrich

C[n+]1ccccc1/C=N/O [2-PAM, 2-pralidoxime, reference compound]
screening efficacy, relative activity (FIG. 3B), in words [1]: negligible background signals | screening efficacy, relative activity (FIG. 3C), in words [2]: negligible background signals

CN(C)Cc1ncccc1O [C1, 2-((dimethylamino)methyl)pyridin-3-ol]
screening efficacy, relative activity (FIG. 3B), in words [1]: Efficacy was compromised

CCN(C)Cc1ncccc1O [C2, 2-((ethyl(methyl)amino)methyl)pyridin-3-ol]
screening efficacy, relative activity (FIG. 3B), in words [1]: Efficacy was compromised

CCCN(C)Cc1ncccc1O [C3, 2-((methyl(propyl)amino)methyl)pyridin-3-ol]
screening efficacy, relative activity (FIG. 3B), in words [1]: Efficacy was compromised

CC(C)N(C)Cc1ncccc1O [C4, 2-((isopropyl(methyl)amino)methyl)pyridin-3-ol]
screening efficacy, relative activity (FIG. 3B), in words [1]: Efficacy was compromised

CCCCN(C)Cc1ncccc1O [C5, 2-((butyl(methyl)amino)methyl)pyridin-3-ol]
screening efficacy, relative activity (FIG. 3B), in words [1]: Efficacy was compromised

CC(C)CN(C)Cc1ncccc1O [C6, 2-((isobutyl(methyl)amino)methyl)pyridin-3-ol]
screening efficacy, relative activity (FIG. 3B), in words [1]: Efficacy was compromised
